# Screen size: about 400,000 compounds; about 13,000 (3.2%) were called active. The inconclusive results got no clear call from the source; some entries with a clear call stand among them for comparison. Calls come from the whole dose curve; as a rule, active = well fitted cell-killing curve with a large enough effect; inconclusive = small, poorly fitted or top-dose-only effect, or effect the other way; inactive = flat fitted curve, though single readings scatter. A potency beside an inconclusive call is a rough fit, not a confirmed value.
# Assay: qHTS assay for MDR1-selective chemotherapeutics: Primary screen using the drug-selected MDR subline cells KB-V1; note: nearly all actives have a fitted effect of over 60% in size
# Conditions: KB-V1 MDR cells viability, CellTiter-Glo, 72 h; series mostly up to 46.1 µM
# In short: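 In this primary screen, KB-V1 cells overexpressing P-gp are incubated with library compounds (lowest to highest concentration) for 72 h at 37 degrees C before a luminescent ATP viability read.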
# Potency is the fitted concentration of half-maximal effect.
row,Compound,Potency
1,CCCc1nc(-c2ccc(-c3ccc(F)cc3)cc2)no1,active: 20.6 µM
2,COc1cccc(CSc2nnnn2-c2ccc(O)cc2)c1,"inconclusive: 16.4 µM [cytotoxic, single point]"
3,COc1cccc(NC(=S)N(CCCN2CCOCC2)C(C)c2cc3ccccc3o2)c1 (configuration not stated),"inconclusive: 13 µM [cytotoxic, partial curve]"
4,OC(COCc1ccccc1)CN1CCc2ccccc2C1 (configuration not stated),inactive
5,COc1cccc(NC(=O)Cn2c(=O)oc3ccccc32)c1,"inconclusive: 20.6 µM [cytotoxic, single point]"
6,CCCOc1ccc(/C=C2\SC(=S)N(CC3CCCO3)C2=O)cc1 (configuration not stated),"inconclusive: 32.6 µM [cytotoxic, partial curve, poor fit]"
7,O=C(Nc1ccccc1)c1ccc(NCC2CCCO2)c(S(=O)(=O)N2CCOCC2)c1 (configuration not stated),"inconclusive: 11.6 µM [cytotoxic, partial curve, poor fit]"
8,O=C(c1ccc(Cl)cc1)C1CCCN(Cc2cccn2-c2cccnc2)C1 (configuration not stated),inactive
9,CC1CCC(C(C)C)C(OCC(O)CN2CCN(Cc3ccccc3)CC2)C1 (configuration not stated),"inconclusive: 18.4 µM [cytotoxic, single point]"
10,CCC(=O)c1ccc(OCC(O)CN2CC(C)OC(C)C2)cc1 (configuration not stated),"inconclusive: 29.1 µM [cytotoxic, single point]"
11,O=[N+]([O-])c1ccc(Sc2cc[n+]([O-])c3ccccc23)c([N+](=O)[O-])c1,"inconclusive: 29.1 µM [cytotoxic, single point]"
12,Cc1ccc(C)c(Nc2nc3nonc3nc2N2CCOCC2)c1,"inconclusive: 23.1 µM [cytotoxic, single point]"
13,Cc1c(C(C)C)c(=O)n(-c2ccc(S(=O)(=O)NC3CCCCC3)cc2)n1C,"inconclusive: 5.8 µM [cytotoxic, partial curve]"
14,COc1ccccc1C(=O)Nc1ccccc1C(=O)N1C(C)CCCC1C (configuration not stated),"inconclusive: 0.651 µM [cytotoxic, full curve]"
15,CCOc1cccc(/C=N/Nc2ccc(S(=O)(=O)N(CC)CC)cn2)c1O,"inconclusive: 0.517 µM [cytotoxic, full curve, poor fit]"
16,COc1cc(NC(=O)c2ccccc2Cl)c2ncccc2c1,"inconclusive: 20.6 µM [cytotoxic, single point]"
17,CC(C)c1ccc(C2/C(=C(/O)c3ccccc3)C(=O)C(=O)N2CCCN2CCOCC2)cc1 (configuration not stated),"inconclusive: 7.31 µM [rising, partial curve]"
18,O=S(=O)(c1ccc2nc(Nc3ccc(Br)cc3F)ccc2c1)N1CCCCC1,"inconclusive: 29.1 µM [rising, single point]"
19,O=C1COc2ccc(C(=O)CSc3nc4ccccc4c(=O)n3-c3ccc(Cl)c(Cl)c3)cc2N1,"inconclusive: 20.6 µM [cytotoxic, partial curve, poor fit]"
20,O=C(NC12CC3CC(CC(C3)C1)C2)OCCNC1CCCCC1,"inconclusive: 7.31 µM [cytotoxic, partial curve, poor fit]"
21,C#CCNC(=O)C[C@@H]1C[C@@]2(C(=O)OCC)CCCC=C2N(CCC2=CCCCC2)C1=O,"inconclusive: 4.11 µM [cytotoxic, full curve]"

row,Compound,Potency
1,Cc1nn(-c2ccccc2)c(N)c1N=Nc1ccc(Cl)cc1,"inconclusive: 29.1 µM [cytotoxic, single point]"
2,CN(C)CCCSc1nc(-c2ccccc2)nc2c1CCC2,inactive
3,OCCCNC(=S)NC1CCCC1,"inconclusive: 29.1 µM [rising, single point]"
4,O=[N+]([O-])c1cc(-c2nc3nc4ccccc4nc3n2CCc2ccccc2)cc([N+](=O)[O-])c1,inactive
5,COCCCN(C(=S)Nc1c(C)cc(C)cc1C)C(C)c1ccncc1 (configuration not stated),"inconclusive: 10.3 µM [cytotoxic, partial curve, poor fit]"
6,Cc1cc(=O)n(Cc2ccc(Br)cc2F)c2c1c(C)nn2-c1ccccc1,inactive
7,CC1CCN(C(=S)NCCc2ccccc2)CC1,active: 23.1 µM
8,CCN(CC(=O)Nc1ccc(OC)cc1)CC(=O)Nc1sc2c(c1C(=O)OC)CCCC2,"inconclusive: 29.1 µM [cytotoxic, partial curve, poor fit]"
9,COc1ccccc1NC(=S)N(CCc1ccc(OC)c(OC)c1)Cc1ccccn1,"inconclusive: 7.31 µM [cytotoxic, partial curve]"
10,COc1cccc2c3cccc(OC)c3c3[nH]cnc3c12,"inconclusive: 9.2 µM [cytotoxic, partial curve, poor fit]"
11,CC(C)c1ccc(/C=C2\C(=O)N(CCN3CCOCC3)C(=S)N2C)cc1,"inconclusive: 29.1 µM [cytotoxic, single point]"
12,COc1ccc(C2CC(c3ccccc3)n3nc(NC(=O)c4cccs4)nc3N2)cc1 (configuration not stated),"inconclusive: 18.4 µM [cytotoxic, partial curve, poor fit]"
13,COC(=O)c1sccc1S(=O)(=O)N(CC(=O)Nc1cc(F)ccc1F)c1ccc(C)c(C)c1,"inconclusive: 29.1 µM [cytotoxic, single point]"
14,CCc1ccc(-c2[nH]nc3nc(-c4cc(OC)ccc4OC)cc(C(=O)O)c23)cc1,"inconclusive: 29.1 µM [rising, single point]"
15,CCCOc1ccc(C(=O)C(CCC(CNCC)C(=O)c2ccc(OCCC)cc2)CNCC)cc1 (configuration not stated),"inconclusive: 29.1 µM [cytotoxic, single point]"
16,CC1(C)Oc2ccc3ccc(=O)oc3c2/C(=C/Nc2cccc(O)c2)C1=O,"inconclusive: 18.4 µM [cytotoxic, single point]"
17,O=C(COC(=O)c1ccc(NS(=O)(=O)c2cccs2)cc1O)NCc1ccccc1,active: 13 µM
18,CC(CNCC1CCCO1)COc1ccccc1 (configuration not stated),inactive
19,CC(C)(C)Nc1nc(N2CCCC2)nc(N2CCCC2)n1,inactive
20,CCc1ccc(C(=O)/C=C/c2ccc([N+](=O)[O-])o2)cc1,"inconclusive: 16.4 µM [cytotoxic, single point]"
21,COc1ccc(C(=O)C2CCCN(Cc3cc(Cl)ccc3O)C2)c(OC)c1 (configuration not stated),"inconclusive: 3.66 µM [cytotoxic, full curve, poor fit]"

# Reformatted: results already given
row	Compound	Potency
12	COc1ccc(C2CC(c3ccccc3)n3nc(NC(=O)c4cccs4)nc3N2)cc1 (configuration not stated)	inconclusive: 18.4 µM [cytotoxic, partial curve, poor fit]
19	CC(C)(C)Nc1nc(N2CCCC2)nc(N2CCCC2)n1	inactive
